These are yes or no findings as the source states them, for the method shown. Binding can be weak; no strength is given. For some assays here: Binding seen in cells or lysates may run through a third protein.
Key:
[1] = target: T1, glyceraldehyde-3-phosphate dehydrogenase, endogenous in P. lutzii protein extract (Paracoccidioides lutzii (endogenous in P. lutzii cells)) (UniProt Q8X1X3); assay: native gel or EMSA; Blue Native PAGE (5-18% gradient, 12 C, pH 7.0) of 300 ug water-soluble proteins of P. lutzii mycelium, mycelium-to-yeast transition and yeast; multiprotein complex with GAPDH excised, in-gel digestion, NanoLC-MSE
T1 sequence: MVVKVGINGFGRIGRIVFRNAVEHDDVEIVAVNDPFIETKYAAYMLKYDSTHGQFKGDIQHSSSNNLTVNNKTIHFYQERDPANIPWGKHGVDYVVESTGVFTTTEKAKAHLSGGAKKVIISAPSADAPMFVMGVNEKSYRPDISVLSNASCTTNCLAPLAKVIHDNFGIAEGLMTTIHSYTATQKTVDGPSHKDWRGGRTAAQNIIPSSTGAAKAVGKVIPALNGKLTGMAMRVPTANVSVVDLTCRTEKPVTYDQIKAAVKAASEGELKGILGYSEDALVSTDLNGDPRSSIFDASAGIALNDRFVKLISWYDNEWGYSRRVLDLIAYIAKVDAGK

[2] = target: T1, glyceraldehyde-3-phosphate dehydrogenase, endogenous in P. lutzii protein extract (Paracoccidioides lutzii (endogenous in P. lutzii cells)); assay: co-IP; target antibodies on protein A sepharose 4B, 3 h with 3 mg/mL total P. lutzii protein extract; washes 10 mM tris pH 7.4, 1% Triton, 1 mM EDTA; eluted with 0.2 M glycine pH 2.6; SDS-PAGE and Western blot

Row | binding [1] | binding [2] | Substance
1 | binds |  | DNA damage checkpoint protein rad24
2 | binds |  | HSP90
3 | binds |  | alcohol dehydrogenase (enzyme)
4 | binds |  | enoyl-CoA hydratase (enzyme)

The remaining lines, values behind:

Row | Substance | binding [1] | binding [2]
5 | 2-methylcitrate dehydratase (enzyme) | binds | 
6 | 2-methylcitrate synthase (enzyme) | binds | binds
7 | NAD(P)H:quinone oxidoreductase type IV (enzyme) | binds | 
8 | acetyl-CoA acetyltransferase (enzyme) | binds | 
9 | aldehyde dehydrogenase (enzyme) | binds | 
10 | enolase (enzyme) | binds | binds
11 | isocitrate lyase (enzyme) | binds | binds
12 | protein 14-3-3 | binds | 
13 | triose phosphate isomerase (enzyme) | binds | binds

From PMC6629890
